One protein from PMC5841405 (Nature Communications, 2018) can be followed below.

This series concerns the molecule itself. Put plainly: ITC; titration of the protein into buffer (dilution); dimer to monomers; 20 mM HEPES pH 7.5, 100 mM NaCl, 0.25 mM TCEP.

B1: Hook1_(1–239)GCN4 (other)
chain: MEETQPPPQPKLPLCDSLMIWLQTFNTASPCQDVKQLTSGVAMAQVLHQIDAAWFNESWLSRIKEDVGDNWRIKASNVKKVLQGIMSYYHEFLGQQISEALIPDLNQITECSDPVELGRLLQLILGCAINCEKKQEHIQNIMTLEESVQHVVMTAIQELMSKEILSSPPNDAVGELEQQLKRALEELQEALAEKEELRQRCEELDMQVTTLQDEKNSLVSENEMMNEKLDQLDGSFDDPMKQLEDKVEELLSKNYHLENEVARLKKL
notes: human Hook1, UniProt Q9UJC3-1, residues 1-239; 28-a.a; Dimeric construct stabilised by the GCN4 leucine zipper; source: E. coli BL21 (DE3), purified (amylose column, TEV cleavage, gel filtration)
For the protein B1, the binding result is recorded as “binds”.
